# Data published in the supplement of paper PMC7024190.
# Where a name gives a salt, the structure may show the parent alone. ± gives the standard deviation of the averaged measurements. This is one part of the list. Single values are uncertain here, since repeats match poorly.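 A first-round screen of about ten thousand compounds sought those raising reporter output, using human embryonic kidney cells briefly transfected with a plasmid carrying a Renilla luciferase gene driven by the HSV-TK promoter.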
# Tested on: HEK 293FT
# Test: log relative Renilla luciferase luminescence (reporter expression vs reference, reference not stated) (log (base not stated)); higher = higher recombinant reporter expression
# Details: 10 µM; time after transfection 48 h
row,Compound,log
1,C[C@H]1[C@H](OC(=O)CCC(=O)O)O[C@@H]2O[C@@]3(C)CC[C@H]4[C@H](C)CC[C@@H]1[C@@]24OO3 [artesunate],-0.0202
2,CC(C)NCC(O)c1cc(O)cc(O)c1 (stereo unspecified) [metaproterenol],-0.173
3,O=C(O)CN(CCN(CC(=O)O)CC(=O)O)CCN(CC(=O)O)CC(=O)O [pentetic acid],0.0948
4,COc1ccc(-c2cc(=O)c3c(OC)c(OC)c(OC)cc3o2)cc1OC [sinensetin],0.247
5,C#CCN(C)CCCOc1ccc(Cl)cc1Cl [clorgiline hydrochloride],0.0674
6,COc1ccc2c(c1)O[C@H]1c3ccc(OC)cc3OC[C@@H]21 [homopterocarpin],0.0475
7,COc1ccccc1N1CCN(CCCNc2cc(=O)n(C)c(=O)n2C)CC1 [urapidil hydrochloride],0.0962
8,CC(C)CCCC(C)C1CCC2C3CCC4CC(O)CCC4(C)C3CCC12C (stereo not drawn) [5alpha-cholestanol],0.174
9,OC[C@H]1O[C@@](CO)(O[C@H]2O[C@H](CO)[C@@H](O)[C@H](O)[C@H]2O)[C@@H](O[C@H]2O[C@H](CO)[C@@H](O)[C@H](O)[C@H]2O)[C@@H]1O [melezitose],-0.101
10,O=C(/C=C/C=C/c1ccc2c(c1)OCO2)N1CCCCC1 [piperine],0.104
11,CCC(=O)OCC(=O)[C@@]1(OC(=O)CC)[C@@H](C)C[C@H]2[C@@H]3CCC4=CC(=O)C=C[C@]4(C)[C@@]3(Cl)[C@@H](O)C[C@@]21C [beclomethasone dipropionate],-0.0398
12,COc1ccc(-c2cc(=O)c3c(O)cc(OC)cc3o2)cc1 [apigenin dimethyl ether],-0.147
13,CCN(CC)Cc1cc(Nc2ccnc3cc(Cl)ccc23)ccc1O [amodiaquine dihydrochloride],-0.0185
14,CC(=O)OCC[N+](C)(C)C [acetylcholine chloride],-0.00743
15,CC(=O)Oc1ccc(O)cc1 [4-acetoxyphenol],-0.255
16,OCCN1C[C@H](O)[C@@H](O)[C@H](O)[C@H]1CO [miglitol],-0.0451
17,CC(=O)O[C@H]1C[C@@H](OC(C)=O)C(C)(C)C2CC(=O)[C@]3(C)C(CC[C@@]4(C)[C@H](c5ccoc5)OC(=O)[C@H]5O[C@]543)[C@]21C (stereo partly specified) [7-deacetoxy-7-oxokhivorin],0.256
18,"O=C(O)c1nc2cc(Cl)c(Cl)cc2nc1O [6,7-dichloro-3-hydroxy-2-quinoxalinecarboxylic acid]",0.102
19,Cn1cnc([N+](=O)[O-])c1Sc1ncnc2[nH]cnc12 [azathioprine],-0.143
20,CC(=O)Oc1cc2c(s1)CCN(C(C(=O)C1CC1)c1ccccc1F)C2 (stereo unspecified) [prasugrel],0.0492
21,CC(C)C(=O)Nc1ccc([N+](=O)[O-])c(C(F)(F)F)c1 [flutamide],0.0391
22,O=C(O)CCCC[C@@H]1SC[C@@H]2NC(=O)N[C@@H]21 [biotin],0.0616
23,CN1CCN(c2cc3c(cc2F)c(=O)c(C(=O)O)cn3-c2ccc(F)cc2)CC1 [difloxacin hydrochloride],0.198
24,C[C@@]1(O)CCOC(=O)C1 [mevalonic acid lactone],-0.257

# No new results follow: an excerpt of the list.
row,Compound,log
8,CC(C)CCCC(C)C1CCC2C3CCC4CC(O)CCC4(C)C3CCC12C (stereo not drawn) [5alpha-cholestanol],0.174
9,OC[C@H]1O[C@@](CO)(O[C@H]2O[C@H](CO)[C@@H](O)[C@H](O)[C@H]2O)[C@@H](O[C@H]2O[C@H](CO)[C@@H](O)[C@H](O)[C@H]2O)[C@@H]1O [melezitose],-0.101
10,O=C(/C=C/C=C/c1ccc2c(c1)OCO2)N1CCCCC1 [piperine],0.104
11,CCC(=O)OCC(=O)[C@@]1(OC(=O)CC)[C@@H](C)C[C@H]2[C@@H]3CCC4=CC(=O)C=C[C@]4(C)[C@@]3(Cl)[C@@H](O)C[C@@]21C [beclomethasone dipropionate],-0.0398

# Continued.

row,Compound,log
1,CC1COc2c(N3CCN(C)CC3)c(F)cc3c(=O)c(C(=O)O)cn1c23 (stereo unspecified) [ofloxacin],0.0223
2,C[C@H](CCC(=O)O)[C@H]1CC[C@H]2[C@@H]3CC[C@@H]4C[C@H](O)CC[C@]4(C)[C@H]3CC[C@]12C [lithocholic acid],0.0426
3,CC(=O)SCC(Cc1ccccc1)C(=O)NCC(=O)OCc1ccccc1 (stereo unspecified) [racecadotril],0.119
4,COC(=O)C1=C(C)NC(C)=C(C(=O)OC(C)C)C1c1cccc2nonc12 (stereo unspecified) [isradipine],0.0363
5,CN1CCC(OC(c2ccccc2)c2ccccc2)CC1 [diphenylpyraline hydrochloride],-0.187
6,"COc1cccc(-c2cc(=O)c3ccc(OC)cc3o2)c1 [7,3'-dimethoxyflavone]",0.113
7,O=C(Oc1cccc2cccnc12)c1ccccc1 [benzoxiquine],0.074
8,C/C=C1\[C@H]2C=C(C)C[C@]1(N)c1ccc(=O)[nH]c1C2 [huperzine a],0.0025
9,C[N+](C)(C)CCO.[Cl-] [choline chloride],0.0267
10,Cc1cc(O)c2c(c1)C(=O)c1cc(O)cc(O)c1C2=O [emodin],0.0932
11,CN(C/C=C/C#CC(C)(C)C)Cc1cccc2ccccc12 [terbinafine hydrochloride],0.13
12,Nc1nc(O)c2ncn(CCC(CO)CO)c2n1 [penciclovir],-0.0202
13,Fc1ccc([C@@H]2CCNC[C@H]2COc2ccc3c(c2)OCO3)cc1 [paroxetine hydrochloride],0.148
14,C=C1CCC2C(CC2(C)C)C(=O)CCC1O (stereo unspecified) [isokobusone],0.14
15,NC(CO)C(=O)NNCc1ccc(O)c(O)c1O (stereo unspecified) [benserazide hydrochloride],-0.0766
16,CN(C)CCCN1c2ccccc2CCc2ccccc21 [imipramine hydrochloride],0.192
17,C[C@H]1COc2c(N3CCN(C)CC3)c(F)cc3c(=O)c(C(=O)O)cn1c23 [levofloxacin],-0.0214
18,NCCC[C@H](N)CC(=O)N[C@H]1CNC(=O)[C@H]([C@H]2C[C@H](O)NC(N)=N2)NC(=O)/C(=C/NC(N)=O)NC(=O)[C@H](CO)NC(=O)[C@H](CO)NC1=O [viomycin sulfate],0.0936
19,NCC[C@H](O)C(=O)N[C@@H]1C[C@H](N)[C@@H](O[C@H]2O[C@H](CN)[C@@H](O)[C@H](O)[C@H]2O)[C@H](O)[C@H]1O[C@H]1O[C@H](CO)[C@@H](O)[C@H](N)[C@H]1O [amikacin sulfate],-0.106
20,COc1ccc2c(c1)OC[C@@H](Cc1ccc(OC)c(OC)c1)[C@H]2O [tetrahydrosappanone a trimethyl ether],-0.00674
21,CC(C)=CCOc1cc2oc(=O)ccc2cc1O [prenyletin],0.0936
22,O=C(O)CSCC(=O)NC1CCSC1=O (stereo unspecified) [erdosteine],0.00695
23,COc1cc(/C=C/C(=O)CC(=O)/C=C/c2ccc(O)c(OC)c2)ccc1O [curcumin],0.131
24,Cc1cc2nc3c(=O)[nH]c(=O)nc-3n(CC(O)C(O)C(O)COP(=O)(O)O)c2cc1C (stereo unspecified) [riboflavin 5-phosphate sodium],0.0342

row,Compound,log
1,NCCc1ccc(O)c(O)c1 [dopamine hydrochloride],-0.105
2,NCCc1ccc(O)c(O)c1 [3-hydroxytyramine],0.102
3,"COC(=O)[C@@]1(C)CCC[C@]2(C)c3ccc(O)c(C(C)C)c3CCC12 (stereo partly specified) [totarol-19-carboxylic acid, methyl ester]",-0.00736
4,O=C(O)CCCCCCCC(O)C(O)CCCCCCO (stereo unspecified) [aleuretic acid],-0.0392
5,CN(Cc1cc(Br)cc(Br)c1N)C1CCCCC1 [bromhexine hydrochloride],0.144
6,C[C@H](CS)C(=O)N1CCC[C@H]1C(=O)O [captopril],-0.251
7,CC1(C)O[C@@H]2C[C@H]3[C@@H]4C[C@H](F)C5=CC(=O)C=C[C@]5(C)[C@H]4[C@@H](O)C[C@]3(C)[C@]2(C(=O)CO)O1 [flunisolide],-0.024
8,C[C@]12CCC(=O)C=C1CC[C@@H]1[C@@H]2[C@@H](O)C[C@@]2(C)[C@H]1CC[C@]2(O)C(=O)COP(=O)(O)O [hydrocortisone phosphate triethylamine],0.15
9,CC(=O)OCC(=O)[C@@]1(O)CC[C@H]2[C@@H]3CCC4=CC(=O)C=C[C@]4(C)[C@H]3[C@@H](O)C[C@@]21C [prednisolone acetate],-0.039
10,CC[C@H](c1ccc(O)cc1)[C@@H](CC)c1ccc(O)cc1 [hexestrol],0.0815
11,Cc1c(Nc2ncccc2C(=O)O)cccc1C(F)(F)F [flunixin meglumine],-0.0301
12,CC(C)(C)NC(=O)[C@H]1CC[C@H]2[C@@H]3CC[C@H]4NC(=O)C=C[C@]4(C)[C@H]3CC[C@]12C [finasteride],-0.0451
13,C=CC1=C(C)/C(=C/c2[nH]c(Cc3[nH]c(/C=C4\NC(=O)C(C)=C4C=C)c(C)c3CCC(=O)O)c(CCC(=O)O)c2C)NC1=O [bilirubin],0.152
14,Nc1nc(N)c2nc(-c3ccccc3)c(N)nc2n1 [triamterene],-0.247
15,C=C1CC[C@H](O)C/C1=C/C=C1\CCC[C@]2(C)[C@@H]([C@H](C)/C=C/[C@H](C)C(C)C)CC[C@@H]12 [ergocalciferol],-0.127
16,CC(C)=CCCC1(C)C=Cc2c(O)c3c(c(CC=C(C)C)c2O1)OC12C(=CCCC1C(C)(C)O[C@@]2(C/C=C(\C)C(=O)O)C(=O)O)C3=O (stereo partly specified) [garcinolic acid],-0.0417
17,C[C@H](CC(=O)[C@@H]1OC1(C)C)[C@H]1C(=O)C[C@@]2(C)C3=CC[C@H]4C(C)(C)[C@@H](O[C@@H]5OC[C@@H](O)[C@H](O)[C@H]5O)CC[C@@]45C[C@@]35[C@@H](O)C[C@]12C [cimicifugoside h1],0.103
18,CCCCOc1ccc(C(=O)CCN2CCCCC2)cc1 [dyclonine hydrochloride],-0.184 ± 0.12
19,COc1cccc(O)c1O [3-methoxycatechol],0.0975
20,CN1[C@@H]2CC[C@H]1C[C@@H](OC(=O)C(O)c1ccccc1)C2 (stereo partly specified) [homatropine hydrobromide],0.209
21,Cn1nnc2c(C(N)=O)ncn2c1=O [temozolamide],0.0483
22,CC(C)(C)CC(C)(C)c1ccc(OCCOCC[N+](C)(C)Cc2ccccc2)cc1 [benzethonium chloride],-0.961
23,CC(C)=CCC[C@@H](C)[C@@H]1CC[C@]2(C)C3=C(CC[C@@]12C)[C@@]1(C)CC[C@H](O)C(C)(C)[C@@H]1CC3 [euphol],0.107
